# Laboratory results: PubChem BioAssay AID1259405 (NCATS, 2018)
# Aim: 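Silenced genes that increase secreted GFP made by CHO cells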 (primary screen)
# Cells: Chinese hamster CHO-K1 ovary cells with stable secreted eGFP expression
# Reagent: single siRNA against mouse genes, 0.8 pmol siRNA per well (2 µl of 400 nM stock)
# Timing: 3 days
# Measured: 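Percent of the per-plate non-targeting control median for intracellular GFP per well by laser scanning cytometry and for cell viability by ATP luminescence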
# Direction: GFP, % of control: higher = more GFP per well, higher productivity; viability (ATP), % of control: higher = more viable cells (more ATP)
# Active means: 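a knock-down is called active if GFP reaches 120% or more of non-targeting control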
# Here is an unselected part of about 50,000 reagents. Of all reagents, about 4,000 (8%) were called active. 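Mouse siRNA library applied to hamster cells; one well for each siRNA.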 The numbers tell different reagents against one gene apart. Reagent sequences are not shown.
gene,reagent no.,"GFP, % of control","viability (ATP), % of control",activity call
Adgrg3,1,95.5,92.2,inactive
Adgrg3,2,115,75.7,inactive
Adgrg3,3,49.5,37.9,inactive
Atp6v1c1,1,69.2,53.1,inactive
Atp6v1c1,2,82.5,82.4,inactive
Atp6v1c1,3,37.7,43.6,inactive
Gria1,1,67.5,95.2,inactive
Gria1,2,50.5,42,inactive
Gria1,3,63.9,57.9,inactive
Or5j1,1,88.8,92.2,inactive
Or5j1,2,48,47.7,inactive
Or5j1,3,55.6,48.7,inactive
Potefam1,1,67.9,63,inactive
Potefam1,2,59.1,65.6,inactive
Potefam1,3,46.3,66.9,inactive
Haghl,1,55.8,86.2,inactive
Haghl,2,78.6,93,inactive
Haghl,3,84.8,122,inactive
Tas2r138,1,69.5,49.9,inactive
Tas2r138,2,50.6,81,inactive
Tas2r138,3,49.8,92.2,inactive
Sppl2b,1,108,64.3,inactive
Sppl2b,2,99.2,47.4,inactive
Sppl2b,3,147,80.2,active
Ints1,1,74.7,92.7,inactive
Ints1,2,128,69.6,active
Ints1,3,58,72.3,inactive
Vsir,1,66,61,inactive
Vsir,2,59.1,65.7,inactive
Vsir,3,79.2,89.5,inactive
Gh,1,76.2,51.7,inactive
Gh,2,87.7,73.4,inactive
Gh,3,32.3,35.4,inactive
Nrp,1,70.2,65.8,inactive
Nrp,2,73.9,69,inactive
Nrp,3,66.4,52.3,inactive
Prdx3,1,29.4,47.1,inactive
Prdx3,2,63.4,65.4,inactive
Prdx3,3,108,81.9,inactive
Arfgap2,1,113,139,inactive
Arfgap2,2,80.4,80.9,inactive
Arfgap2,3,72,70.1,inactive
Or4c102,1,66.2,69.8,inactive
Or4c102,2,53,74.2,inactive
Or4c102,3,50,96.5,inactive

The list goes on, starting with the last 14 of the part before.
gene,reagent no.,"GFP, % of control","viability (ATP), % of control",activity call
Gh,2,87.7,73.4,inactive
Gh,3,32.3,35.4,inactive
Nrp,1,70.2,65.8,inactive
Nrp,2,73.9,69,inactive
Nrp,3,66.4,52.3,inactive
Prdx3,1,29.4,47.1,inactive
Prdx3,2,63.4,65.4,inactive
Prdx3,3,108,81.9,inactive
Arfgap2,1,113,139,inactive
Arfgap2,2,80.4,80.9,inactive
Arfgap2,3,72,70.1,inactive
Or4c102,1,66.2,69.8,inactive
Or4c102,2,53,74.2,inactive
Or4c102,3,50,96.5,inactive
1700018F24Rik,1,64.5,72.9,inactive
1700018F24Rik,2,83.5,102,inactive
1700018F24Rik,3,79.7,84.7,inactive
Nat14,1,136,90.2,active
Nat14,2,71.5,87.7,inactive
Bmp6,1,85.4,58.7,inactive
Bmp6,2,99.9,75.8,inactive
Pdcd6ip,1,129,100,active
Pdcd6ip,2,80.4,74.6,inactive
Pdcd6ip,3,67.1,71,inactive
Zfp770,1,62.1,64.8,inactive
Zfp770,2,103,97.3,inactive
Zfp770,3,108,111,inactive
A630038E17Rik,1,50.1,43.4,inactive
A630038E17Rik,2,101,102,inactive
A630038E17Rik,3,52.3,61.8,inactive
Spata18,1,69.6,65.2,inactive
Spata18,2,143,93.2,active
Spata18,3,78.2,61.5,inactive
Sp5,1,82.5,63.1,inactive
Sp5,2,59.6,68.9,inactive
Sp5,3,89.3,79.9,inactive
Esrra,1,66.6,63.8,inactive
Esrra,2,75.8,70.3,inactive
Homez,1,80.6,84.4,inactive
Homez,2,80,78.9,inactive
Homez,3,92.2,101,inactive
Nsrp1,1,79.3,60.5,inactive
Nsrp1,2,64.2,87.6,inactive
Nsrp1,3,101,74.1,inactive
Neil1,1,72.5,94,inactive
Neil1,2,113,81.7,inactive
Neil1,3,63,87.6,inactive
Tac4,1,64.9,77.1,inactive
Tac4,2,80.3,84.8,inactive
Tac4,3,118,95.2,inactive
Or5ac25,1,52.7,71,inactive
Or5ac25,2,57.3,46,inactive
Or5ac25,3,43.3,63.8,inactive
Cldn11,1,55.3,60.2,inactive
Cldn11,2,93.1,116,inactive
Cldn11,3,98.9,123,inactive
Wdr75,1,122,57.8,active
Wdr75,2,51.1,25.3,inactive
Wdr75,3,86.5,80.2,inactive
Zfand5,1,65.5,62.6,inactive
Zfand5,2,73.2,63.6,inactive
Zfand5,3,110,70.5,inactive
Klf9,1,53.5,60.2,inactive
Klf9,2,76,71.2,inactive
Recql5,1,79.4,73.7,inactive
Recql5,2,144,153,active
Recql5,3,53.4,68.5,inactive
Grm3,1,88.9,88,inactive
Grm3,2,25.1,33.3,inactive
Grm3,3,69.5,74.4,inactive
Etv3,1,43.3,36.1,inactive
Etv3,2,70.4,91.7,inactive
Etv3,3,101,57.4,inactive
Or1p1,1,175,67.6,active
Or1p1,2,27.2,63.9,inactive
Or1p1,3,55.4,92,inactive
Or1p1,4,132,104,active
Or1p1,5,107,105,inactive
Or1p1,6,138,111,active
